Data as given in the supplement of paper PMC3334620.
In all, about 33,000 sequences were measured (“E-score (-0.5 to 0.5)”: median about -0.0034, highest 2% from about 0.25 on). Some of the results follow.

target: T1, Yap3 (UniProt P38749); assay: PBM E-score (8-mer binding enrichment) (E-score (-0.5 to 0.5)); higher = stronger / more preferred TF binding; conditions: protein concentration: 100 nM; construct: GST-full length
T1 sequence: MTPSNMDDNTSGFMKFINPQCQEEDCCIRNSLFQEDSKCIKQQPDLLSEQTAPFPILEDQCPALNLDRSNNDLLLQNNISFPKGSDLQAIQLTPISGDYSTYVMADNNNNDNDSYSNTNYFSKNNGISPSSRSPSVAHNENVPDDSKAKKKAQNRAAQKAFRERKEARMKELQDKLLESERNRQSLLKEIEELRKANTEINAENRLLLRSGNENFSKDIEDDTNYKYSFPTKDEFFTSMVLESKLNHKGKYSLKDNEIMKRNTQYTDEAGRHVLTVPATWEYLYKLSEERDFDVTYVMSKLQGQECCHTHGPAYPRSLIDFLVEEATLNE
Summary of the method: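 Using PURExpress in vitro transcription/translation, GST-tagged yeast transcription factors were made in full-length or DNA-binding-domain form. These were applied at about 100-200 nM to double-stranded universal all-10-mer Agilent arrays, and bound protein was detected with fluorescent anti-GST. Scans were normalised with masliner before the Universal PBM Analysis Suite assigned E-scores to ungapped eight-base words pooled with their reverse complements.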

Row | Sequence | PBM E-score
1 | ACATTCAA | 0.0532
2 | ACTCAGAA | 0.165
3 | AGGTTAAT | 0.0553
4 | CAGACCTG | -0.0275
5 | CTTATCTC | 0.0941
6 | AACGAGGG | -0.0762
7 | GAGACAAC | 0.0388
8 | AAAGCAGT | 0.122
9 | AAACAAGC | 0.0955
10 | AACGGTCC | -0.258
11 | ACCTGCCC | -0.168
12 | AATGCCAA | 0.0604
13 | CGCTCACC | -0.0419
14 | GCTATACC | 0.0197
15 | AGCACCTG | -0.102
16 | CGCACCGC | -0.16
17 | ATCGAGGA | 0.0193
18 | ATGTATTA | 0.178
19 | GACATCGA | -0.169
20 | GGCCCGAC | -0.177
21 | AACTCTTA | -0.0791
22 | GTTACGGA | -0.0561
23 | TACTCGCA | 0.145
24 | AAGCTACC | -0.0432
25 | ACACTCAA | 0.203

Row | Sequence | PBM E-score
26 | ATCACAAG | -0.0228
27 | ACTGGAGA | -0.0462
28 | ATGCGCGA | -0.0597
29 | TCGATCCA | -0.0884
30 | AAAGACCC | -0.119
31 | ATCAGCAA | 0.00676
32 | ATGCTTGA | 0.0303
33 | CTATGAAC | 0.0589
34 | GAAGGCTA | -0.072
35 | AGTAGTCA | -0.0313
36 | CGGATCCA | 0.13
37 | GCTGAAAA | 0.0826
38 | AACACCAC | -0.0171
39 | GGGTATCA | 0.0467
40 | ATCCGATA | 0.0883
41 | AAGTACAA | 0.0986
42 | CACGACAA | 0.0588
43 | CTCCCCTC | -0.147
44 | AGGTTTAC | -0.0291
45 | AGAGGACT | -0.225
46 | GACGTGTA | -0.148
47 | AACACGAA | 0.21
48 | AAGATGCG | 0.143
49 | CTCCCGGA | -0.225
50 | CTCTTTTC | 0.135

Row | Sequence | PBM E-score
51 | CTGAGAAA | 0.0446
52 | ACTCGCCC | -0.263
53 | CCAACCTC | -0.0133
54 | GGCTCAAA | -0.112
55 | CAAGGATG | -0.0177
56 | AGACCAAC | -0.0269
57 | AAGAGCTA | 0.0659
58 | CTTGGCGA | -0.273
59 | GCGATCAC | -0.123
60 | AAAAATAT | 0.342
61 | AAGAAACC | 0.106
62 | ACACGTTC | 0.0858
63 | TGACATCA | 0.148
64 | AGCCATTA | 0.0318
65 | GTCAGCAA | 0.154
66 | ACCATCGA | -0.0152
67 | AATGCCGG | 0.0525
68 | TAATTAGA | 0.291
69 | CTAAAGTC | -0.258
70 | TATAACCA | 0.269
71 | ACTATTAC | 0.149
72 | CCTGGAGC | -0.069
73 | CATAGGCC | -0.0909
74 | GTTGCAAC | 0.00267
75 | CTACATAA | -0.0287

Row | Sequence | PBM E-score
76 | TAAGCGAA | 0.0803
77 | AATCTTGC | 0.0407
78 | ACATTTGA | 0.122
79 | ACGGCCGG | -0.101
80 | GGCCGGAC | -0.248
81 | CGGGTGAA | 0.0475
82 | GCCAGCTA | -0.143
83 | GAGAGAAA | 0.0853
84 | CCCGCGCG | 0.154
85 | GCTATTCA | 0.0483
86 | GGACCCAA | -0.179
87 | TAACCGTA | 0.0268
88 | CGTCGCCA | 0.00175
89 | CTGCCTAC | -0.014
90 | AGTCCGGG | -0.235
91 | ATCCAGGG | -0.216
92 | GCTTTAAC | 0.191
93 | ATAAATTG | 0.312
94 | ATTGATTG | 0.216
95 | AAAACGTA | 0.141
96 | CGTTCACC | 0.0464
97 | CGTGAACG | -0.189
98 | CCATTCCC | -0.198
99 | ACGCTATG | -0.086
100 | CTAGGATA | -0.00481

Given tab-delimited: part of the list above.
Row	Sequence	PBM E-score
7	GAGACAAC	0.0388
8	AAAGCAGT	0.122
9	AAACAAGC	0.0955
10	AACGGTCC	-0.258
11	ACCTGCCC	-0.168
12	AATGCCAA	0.0604
13	CGCTCACC	-0.0419

(list continues)

Row | Sequence | PBM E-score
101 | GACTTTGC | 0.112
102 | GACGGATC | -0.0135
103 | AATACGTG | 0.0823
104 | AGTATCTC | -0.00928
105 | AAAACATA | 0.181
106 | GGATGAAC | -0.0771
107 | CCGATCAA | -0.154
108 | ACCAAGCG | -0.0737
109 | CCCTAAAA | -0.104
110 | GTCGGCCA | -0.279
111 | ACATCCAA | 0.0991
112 | GTCCTCCA | -0.0436
113 | GTTTATTA | 0.268
114 | AACGGACT | -0.0722
115 | ACGGCACA | -0.0246
116 | ATCGGAAG | 0.122
117 | TAATAGTA | 0.142
118 | CCTAGGAG | -0.234
119 | GGGCGGAA | 0.0193
120 | CAATACAA | 0.187
121 | GGTGCCTA | -0.0752
122 | CACATTTC | 0.193
123 | CGCACAAG | -0.0438
124 | CAGAGCTA | -0.267
125 | AAAAGATT | 0.0254

Row | Sequence | PBM E-score
126 | CTTAGCCA | 0.0218
127 | CGGGTACG | -0.222
128 | CTCAGTGC | -0.113
129 | CAGGGAGC | -0.291
130 | GAGGAGAA | -0.161
131 | CATAACTA | 0.0481
132 | CCAATTAG | 0.177
133 | ATGGGACC | 0.0297
134 | CCAGACTA | 0.00653
135 | TACATGTA | 0.255
136 | CCCCCCAC | -0.408
137 | AGTAACAC | 0.142
138 | CTCGGGAA | -0.109
139 | CTAGCGCA | -0.0636
140 | ACAGAAGG | -0.183
141 | CTTGAGTA | 0.0459
142 | CTAGTAAG | 0.0701
143 | ATCTAATC | 0.191
144 | CAGGCAGC | -0.0913
145 | AGATCATC | -0.0984
146 | ATTTATAA | 0.273
147 | ACGCTACT | 0.00361
148 | AGAGCTAA | -0.0705
149 | ACGAAGAG | 0.0812
150 | ACCCAACA | -0.0413

Row | Sequence | PBM E-score
151 | CTTGATTC | 0.0825
152 | AAGGAGAA | 0.161
153 | ATACTCTG | 0.139
154 | ATAGTTGA | 0.161
155 | CCGGATGC | -0.266
156 | ATGCAAGC | 0.0334
157 | ATTGTTGA | 0.173
158 | AAGTAGTG | 0.0834
159 | ATAACACA | 0.273
160 | AGTCAGAA | -0.0212
161 | CTGGCAAC | -0.0706
162 | TATCTAGA | 0.00566
163 | GGTAGCAA | -0.0982
164 | AGTTAGAC | -0.0213
165 | ATAGATCA | 0.112
166 | ACAGCCTG | 0.0194
167 | CGGCACAC | -0.098
168 | CATGATGG | -0.0998
169 | CATCGGCC | -0.236
170 | CATATTGC | -0.121
171 | GAAGCAGC | -0.245
172 | AGGTAGCC | -0.22

Five records picked at random from those above:
Row | Sequence | PBM E-score
86 | GGACCCAA | -0.179
119 | GGGCGGAA | 0.0193
117 | TAATAGTA | 0.142
34 | GAAGGCTA | -0.072
171 | GAAGCAGC | -0.245

Some of the entries so far, field by field:
ATAACACA
  PBM E-score: 0.273
CATGATGG
  PBM E-score: -0.0998
